According to the supplement of paper PMC12067093, “Discovery and optimisation of a covalent ligand for TRIM25 and its application to targeted protein ubiquitination” (Chemical Science, 2025):
The list shows a part of the results.

Each target was assayed with CC1Cc2ccccc2N1C(=O)C1CCCN(C1)C(=O)CCl (mixture of isomers) [TRIM25 ligand 11 (diastereomer mixture)] (assay: probe-labelled cysteine peptide fold change vs DMSO (competition) (log2 fold change); higher = less target engagement (more negative = stronger competition)). Settings: 10 µM; THP-1; incubation time: 4 h.
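Note: competitive chemoproteomic profiling in live THP-1 cells with an iodoacetamide desthiobiotin (IA-DTB) probe, comparing probe-labelled peptide intensities in compound-treated cells against DMSO-treated controls.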

Target	probe-labelled cysteine peptide fold change
ITM2C_Q9NQX7_96_CGVLYEDSLSSQVR (UniProt Q9NQX7)	0.0701
KEAP1_Q14145_77_LSQQLCDVTLQVK (UniProt Q14145)	-0.0186
KAT6A_Q92794_773_LQLNLRPVDVDPECLR (UniProt Q92794)	0.176
KHDC4_Q7Z7F0_280_GSGCIEPASGR (UniProt Q7Z7F0)	-0.00375
KAT8_Q9H7Z6_442_KPPITVDSVCLK (UniProt Q9H7Z6)	-0.00352
ITPRID2_P28290_448_EPCAPLTIPSIR (UniProt P28290)	-0.0408
KDELC2_Q7Z4H8_497_DGMELVPQPEDSTAICQCHR (UniProt Q7Z4H8)	-0.244
KEAP1_Q14145_273_CHSLTPNFLQMQLQK (UniProt Q14145)	0.0276
KIF14_Q15058_508_IHDLLVCK (UniProt Q15058)	-0.0396
ITPK1_Q13572_391_LGCNAGVSPSFQQHCVASLATK (UniProt Q13572)	0.128
KANK2_Q63ZY3_797_EIAGLLLAVPSCDISLTDR (UniProt Q63ZY3)	-0.16
KCTD18_Q6PI47_234_VPHELIECWTLEERPLLGSLR (UniProt Q6PI47)	0.152
KEAP1_Q14145_624_QIDQQNCTC (UniProt Q14145)	0.0249
ITPR1_Q14643_2542_EHTCETLLMCIVTVLSHGLR (UniProt Q14643)	0.0738
KIF13B_Q9NQT8_1234_AEASWDSAVHGCPQLSR (UniProt Q9NQT8)	-0.0064
KIAA1958_Q8N8K9_246_PKPQTHAGPSCVGSAK (UniProt Q8N8K9)	-0.0886
ITPR2_Q14571_1385_DRGDESGPLAYHITLVELLAACTEGK (UniProt Q14571)	0.292
KANSL2_Q9H9L4_88_DGVSFCAEHVR (UniProt Q9H9L4)	0.00575
JUND_P17535_336_VLSHVNSGCQLLPQHQVPAY (UniProt P17535)	0.0837

Target	probe-labelled cysteine peptide fold change
ITPR2_Q14571_379_ADCLVPR (UniProt Q14571)	-0.149
KDM1A_O60341_618_CDAVLCTLPLGVLK (UniProt O60341)	0.124
KARS_Q15046_496_EICNAYTELNDPMR (UniProt Q15046)	-0.184
KDM2B_Q8NHM5_1278_DSLTEINLSDCNK (UniProt Q8NHM5)	0.0507
IVD_P26440_350+355_ACDEGHCTAK (UniProt P26440)	0.214
KANSL1_Q7Z3B3_664_LSQLDSCVHPVLAFPDDVPTSLHFQSMLK (UniProt Q7Z3B3)	0.0737
KIDINS220_Q9ULH0_779_LVVIIDGLDACEQDK (UniProt Q9ULH0)	-0.174
KBTBD11_O94819_384_ARPSDQVFCYNPATDSWSAVRPLR (UniProt O94819)	0.0415
KIF15_Q9NS87_999_TSVCEK (UniProt Q9NS87)	0.00181
KDM3A_Q9Y4C1_814_PACPASTSPLNWLADLTSGNVNK (UniProt Q9Y4C1)	0.0136
KEAP1_Q14145_319_IFEELTLHKPTQVMPCR (UniProt Q14145)	0.0299
KANK1_Q14678_589_SVEMCDK (UniProt Q14678)	-0.078
KEAP1_Q14145_489_LNSAECYYPER (UniProt Q14145)	0.227
ITGB7_P26010_428_GQCNHVR (UniProt P26010)	0.13
JMY_Q8N9B5_547_CEELLLTAQLESIKR (UniProt Q8N9B5)	0.0243
ITPR2_Q14571_1246_MNEVMNLAHTFLQNFCR (UniProt Q14571)	-0.141
ITPRID2_P28290_887_TLSTHSVPNISGATCSAFASPFGCPYSHR (UniProt P28290)	-0.0404
KDSR_Q06136_245_LISETTSVCKPEQVAK (UniProt Q06136)	-0.0803

Same assay, conditions: 50 µM; THP-1; incubation time: 4 h

Target	probe-labelled cysteine peptide fold change
ITM2C_Q9NQX7_96_CGVLYEDSLSSQVR (UniProt Q9NQX7)	-0.156
KEAP1_Q14145_77_LSQQLCDVTLQVK (UniProt Q14145)	0.206
KAT6A_Q92794_773_LQLNLRPVDVDPECLR (UniProt Q92794)	0.231
KHDC4_Q7Z7F0_280_GSGCIEPASGR (UniProt Q7Z7F0)	0.0482
KAT8_Q9H7Z6_442_KPPITVDSVCLK (UniProt Q9H7Z6)	0.376
ITPRID2_P28290_448_EPCAPLTIPSIR (UniProt P28290)	-0.0961
KDELC2_Q7Z4H8_497_DGMELVPQPEDSTAICQCHR (UniProt Q7Z4H8)	-0.17
KEAP1_Q14145_273_CHSLTPNFLQMQLQK (UniProt Q14145)	0.351
KIF14_Q15058_508_IHDLLVCK (UniProt Q15058)	-0.094
ITPK1_Q13572_391_LGCNAGVSPSFQQHCVASLATK (UniProt Q13572)	-0.358
KANK2_Q63ZY3_797_EIAGLLLAVPSCDISLTDR (UniProt Q63ZY3)	0.211
KCTD18_Q6PI47_234_VPHELIECWTLEERPLLGSLR (UniProt Q6PI47)	-0.0111
KEAP1_Q14145_624_QIDQQNCTC (UniProt Q14145)	0.00107
ITPR1_Q14643_2542_EHTCETLLMCIVTVLSHGLR (UniProt Q14643)	0.107
KIF13B_Q9NQT8_1234_AEASWDSAVHGCPQLSR (UniProt Q9NQT8)	0.0464
KIAA1958_Q8N8K9_246_PKPQTHAGPSCVGSAK (UniProt Q8N8K9)	-0.293
ITPR2_Q14571_1385_DRGDESGPLAYHITLVELLAACTEGK (UniProt Q14571)	0.164
KANSL2_Q9H9L4_88_DGVSFCAEHVR (UniProt Q9H9L4)	0.0136
JUND_P17535_336_VLSHVNSGCQLLPQHQVPAY (UniProt P17535)	0.179

Target	probe-labelled cysteine peptide fold change
ITPR2_Q14571_379_ADCLVPR (UniProt Q14571)	-0.144
KDM1A_O60341_618_CDAVLCTLPLGVLK (UniProt O60341)	0.0108
KARS_Q15046_496_EICNAYTELNDPMR (UniProt Q15046)	-0.0552
KDM2B_Q8NHM5_1278_DSLTEINLSDCNK (UniProt Q8NHM5)	0.099
IVD_P26440_350+355_ACDEGHCTAK (UniProt P26440)	0.227
KANSL1_Q7Z3B3_664_LSQLDSCVHPVLAFPDDVPTSLHFQSMLK (UniProt Q7Z3B3)	0.0775
KIDINS220_Q9ULH0_779_LVVIIDGLDACEQDK (UniProt Q9ULH0)	0.0538
KBTBD11_O94819_384_ARPSDQVFCYNPATDSWSAVRPLR (UniProt O94819)	0.172
KIF15_Q9NS87_999_TSVCEK (UniProt Q9NS87)	-0.0605
KDM3A_Q9Y4C1_814_PACPASTSPLNWLADLTSGNVNK (UniProt Q9Y4C1)	-0.377
KEAP1_Q14145_319_IFEELTLHKPTQVMPCR (UniProt Q14145)	-0.0401
KANK1_Q14678_589_SVEMCDK (UniProt Q14678)	0.143
KEAP1_Q14145_489_LNSAECYYPER (UniProt Q14145)	0.326
ITGB7_P26010_428_GQCNHVR (UniProt P26010)	0.199
JMY_Q8N9B5_547_CEELLLTAQLESIKR (UniProt Q8N9B5)	0.0724
ITPR2_Q14571_1246_MNEVMNLAHTFLQNFCR (UniProt Q14571)	-0.166
ITPRID2_P28290_887_TLSTHSVPNISGATCSAFASPFGCPYSHR (UniProt P28290)	-0.408
KDSR_Q06136_245_LISETTSVCKPEQVAK (UniProt Q06136)	-0.148
